Measured values published in PubChem BioAssay AID1347076 (National Center for Advancing Translational Sciences (NCATS), 2019).
The whole screen tested about 400,000 compounds, of which about 13,000 (3.2%) were called active. The shares of active, inactive and inconclusive entries below differ from those in the screen. The call rests on the fitted dose curve; in most records, active means well fitted cell-killing curve with a large enough effect; inconclusive means small, poorly fitted or top-dose-only effect, or effect the other way; inactive means flat fitted curve, though single readings scatter. Potencies of inconclusive entries are doubtful fits and often do not repeat.

Test: qHTS assay for MDR1-selective chemotherapeutics: Primary screen using the drug-selected MDR subline cells KB-V1; further: nearly all actives have a fitted effect of over 60% in size
Settings: KB-V1 MDR cells viability, CellTiter-Glo, 72 h; series mostly up to 46.1 µM
How it was run: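 Compound-treated KB-V1 multidrug-resistant cells, 72 h, 37 degrees C; viability by CellTiter-Glo. Fitted qHTS curves give the values.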
Potency means the concentration at half of the fitted maximal effect.

Structure (SMILES)	Potency
Cc1ccc(S(=O)(=O)N(CC(=O)N=Nc2c(O)[nH]c3ccccc23)c2cccc(C)c2)cc1	active: 20.6 µM
Nc1n[nH]c(N)c1N=Nc1ccc2c(c1)OCO2	inconclusive: 1.3 µM [cytotoxic, full curve]
O=C(/C=C/c1ccccc1O)c1ccco1	inconclusive: 14.6 µM [cytotoxic, partial curve]
Cc1ccc(/C=N/NC(=O)c2c(C)nc3ccc(Br)cn23)cc1	active: 1.3 µM
Cc1cc(C)nc(NS(=O)(=O)c2ccc(NC(=O)c3cc4c(=O)n5cccc(C)c5nc4n3C)cc2)n1	inconclusive: 29.1 µM [rising, single point]
OC(COCc1ccc2c(c1)OCO2)CN1CCN(Cc2ccccc2)CC1 (stereo not drawn)	inactive
O=C(CN1C(=O)c2cccc3cccc1c23)Nc1ccccc1	inactive
Cc1cnc(C(=O)Nc2cc(F)ccc2C)cn1	inactive
CCCC(C)c1nc(C(N)=O)c2[nH]c(=O)n(-c3ccc(OC)c(OC)c3)c2n1 (stereo not drawn)	active: 5.8 µM
CC(C)Oc1cccc(C(=O)Nc2ccc(CN3CCOCC3)cc2)c1	inconclusive: 29.1 µM [cytotoxic, single point]
Cc1nn(CC(=O)NC2CCS(=O)(=O)C2)c(C)c1S(=O)(=O)N(C)C (stereo not drawn)	inconclusive: 29.1 µM [rising, single point]
O=C1/C(=C/c2ccc([N+](=O)[O-])cc2)C=C(c2ccccc2)N1c1ccc(O)cc1	active: 5.8 µM
Oc1ccc(O)c(C=NNC(=S)NC2CC3CC2C2C=CCC32)c1 (stereo not drawn)	inconclusive: 0.92 µM [cytotoxic, full curve, poor fit]
CN(Cc1ccccc1)C(=O)c1[nH]cnc1C(=O)Nc1ccccc1	inconclusive: 16.4 µM [rising, single point]
CCc1ccc(OC(=O)Nc2ccccc2)cc1	inconclusive: 23.1 µM [rising, single point]
COc1ccc(C(=O)Nc2ccncc2)c(OC)c1	inconclusive: 18.4 µM [cytotoxic, single point]
Cc1cc(C)cc(OCC(=O)Nc2cc(C)on2)c1	inconclusive: 6.51 µM [rising, full curve]
CCOC(=O)Cn1c(=O)oc2cc(S(=O)(=O)N3CCN(c4ccccc4OC)CC3)ccc21	inconclusive: 16.4 µM [rising, single point]
Cc1cc(C(=O)NC2CCCCC2)c(C)o1	inactive
COc1ccc(C(=O)Nc2nnc(-c3cccs3)s2)cc1	inconclusive: 3.26 µM [cytotoxic, full curve]
COc1ccc(C(C(=O)NC2CCCCC2)N(C(=O)c2csnn2)C2CC2)cc1 (stereo not drawn)	inconclusive: 29.1 µM [cytotoxic, single point]
COc1cc(C(=O)NCCCNc2ccc([N+](=O)[O-])cc2)cc(OC)c1OC	active: 20.6 µM
Cc1c(C(=O)NC(C)c2ccccc2)c(-c2ccccc2)nn1-c1ccccc1 (stereo not drawn)	inactive

Structure (SMILES)	Potency
O=C1OCCN1C(=O)[C@H]1[C@H](c2ccc(Cl)cc2)C(c2cccc(Cl)c2)=NN1c1ccc(Br)cc1	inconclusive: 18.4 µM [cytotoxic, single point]
COc1ccc2c(c1OC)C(=O)N1c3ccccc3SC21 (stereo not drawn)	inconclusive: 0.231 µM [rising, full curve]
O=C(Cn1cnc2ccccc2c1=O)N1CCN(Cc2ccc3c(c2)OCO3)CC1	inconclusive: 6.51 µM [cytotoxic, partial curve]
O=C1CCCN1CCCN=c1c([N+](=O)[O-])nn(-c2ccc(Cl)cc2)n1O	inconclusive: 29.1 µM [cytotoxic, single point]
CCN1CSC(=S)N(Cc2ccc(OC)cc2)C1	inconclusive: 16.4 µM [cytotoxic, partial curve, poor fit]
CC(C)(C)C(=O)Nc1ccc(-c2cn3ccsc3n2)cc1	inactive
Cc1ccc(S(=O)(=O)Nc2ccc3nc(C)sc3c2)cc1	inconclusive: 18.4 µM [cytotoxic, single point]
COc1ccccc1[C@]1(C)ON(c2ccccc2C(F)(F)F)C1=O	inconclusive: 29.1 µM [cytotoxic, single point]
CN1C(=O)C2(Oc3ccccc3C3CC(c4ccccc4)=NN32)c2ccccc21 (stereo not drawn)	active: 18.4 µM
O=C(CCC(=O)c1ccc(Oc2ccccc2)cc1)Nc1ccc(Cl)cc1Cl	inactive
CC(C)(C)NC(=O)C(c1ccc(C(F)(F)F)cc1)n1c(=O)c(-c2ccccc2)nc2ccccc21 (stereo not drawn)	inconclusive: 18.4 µM [cytotoxic, partial curve]
COc1cc(OC)c(OC)cc1/C=C/C(=O)c1ccc(NS(=O)(=O)c2ccc(C)cc2)cc1	active: 14.6 µM
CC1Cc2nc(SCC(=O)N3CCCCC3)n(C)c(=O)c2S1 (stereo not drawn)	inconclusive: 23.1 µM [cytotoxic, single point]
CC(C)NC(=O)CN1CCN(Cc2nc(C(c3ccccc3)c3ccccc3)no2)CC1	inconclusive: 11.6 µM [cytotoxic, partial curve, poor fit]
Cc1ccc(C(=O)NCCN2C3=NC[C@@H](Cc4ccccc4)N3C[C@H]2Cc2ccc(O)cc2)cc1Br	inconclusive: 23.1 µM [rising, single point]
C=CCn1c(SCC(=O)NCCc2ccccc2)nnc1C(C)NC(=O)c1cccs1 (stereo not drawn)	inconclusive: 11.6 µM [cytotoxic, partial curve]
C[C@@H]1CN([C@@H](C)CO)C(=O)c2cc(C3=CCCCC3)cnc2O[C@H]1CN(C)C(=O)Nc1cccc(F)c1	inactive
COc1ccccc1C(=O)Nc1ccc2c(c1)OCO2	inactive
COc1ccccc1NC(=O)CSc1ccc(-c2ccc(-n3cccn3)cc2)nn1	inconclusive: 13 µM [cytotoxic, partial curve]
COC(=O)[C@@H](CC(C)C)NS(=O)(=O)N(Cc1ccccc1)[C@@H](CC(C)C)C(=O)OC	inconclusive: 13 µM [cytotoxic, partial curve]
CC1=C(C(=O)N2CCCCCC2)CC(CC(=O)NCc2cccc3ccccc23)C(=O)N1CCC1=CCCCC1 (stereo not drawn)	active: 18.4 µM
CCN(CC)S(=O)(=O)c1cccc(NC(=O)COc2ccc(Cl)cc2Br)c1	active: 20.6 µM
COc1cc(OC)c(-c2cc(C(=O)O)ccc2OC)c(OC)c1	inconclusive: 7.31 µM [rising, partial curve]

Given as labelled records: entries from further up.
O=C1CCCN1CCCN=c1c([N+](=O)[O-])nn(-c2ccc(Cl)cc2)n1O
  Potency: inconclusive: 29.1 µM [cytotoxic, single point]
CCN1CSC(=S)N(Cc2ccc(OC)cc2)C1
  Potency: inconclusive: 16.4 µM [cytotoxic, partial curve, poor fit]
CC(C)(C)C(=O)Nc1ccc(-c2cn3ccsc3n2)cc1
  Potency: inactive
Cc1ccc(S(=O)(=O)Nc2ccc3nc(C)sc3c2)cc1
  Potency: inconclusive: 18.4 µM [cytotoxic, single point]

Additional records

Structure (SMILES)	Potency
CS(=O)(=O)N(Cc1ccccc1Cl)c1ccc(C(=O)NCc2ccccn2)cc1	inconclusive: 18.4 µM [cytotoxic, partial curve]
COC(=O)c1ccc(Cl)c(NC(=O)NC23CC4CC(CC(C4)C2)C3)c1	inconclusive: 20.6 µM [cytotoxic, single point]
CCCCC(=O)Nc1ccc(C(=O)OC2CCCCC2)cc1	inconclusive: 0.206 µM [cytotoxic, full curve, poor fit]
COc1ccc2c(CC(=O)NCc3ccc4c(c3)OCO4)coc2c1	inconclusive: 23.1 µM [cytotoxic, single point]
CSc1ccccc1NC(=O)Nc1cccc(Cl)c1Cl	inconclusive: 29.1 µM [cytotoxic, partial curve, poor fit]
COc1cc(C(O)c2nc(-c3ccc(N(C)C)cc3)cs2)ccc1F (stereo not drawn)	inconclusive: 13 µM [cytotoxic, partial curve]
COc1ccc(-c2nnn3c2nc(NCc2ccc(C)cc2)c2ccccc23)cc1	inconclusive: 23.1 µM [rising, partial curve, poor fit]
O=C(c1cc(-c2ccc(F)cc2)on1)N1CCCC1	inconclusive: 13 µM [cytotoxic, partial curve, poor fit]
CCCCN1CC(COCc2ccccc2)Oc2cccc(N3CCCC3)c2S1(=O)=O (stereo not drawn)	inconclusive: 18.4 µM [cytotoxic, partial curve, poor fit]
O=C(O/N=C\c1ccc(N2CCCCC2)c([N+](=O)[O-])c1)c1cccc(Cl)c1	inconclusive: 11.6 µM [cytotoxic, partial curve]
O=C(Nc1cc(S(=O)(=O)N2CCOCC2)ccc1N1CCOCC1)c1ccccc1[N+](=O)[O-]	inactive
COc1ccc(C(CNC(=O)c2cccc(S(=O)(=O)Nc3ccc(F)cc3)c2)N(C)C)cc1 (stereo not drawn)	inconclusive: 23.1 µM [cytotoxic, single point]
N=c1n(CCN2CCOCC2)c2ccccc2n1CC(=O)c1ccc(Cl)c(Cl)c1	inconclusive: 23.1 µM [cytotoxic, single point]
O=C(COC(=O)C1(c2ccccc2)CC1)N1CCN(c2ccc(F)cc2)CC1	inconclusive: 25.9 µM [cytotoxic, single point]
CC(C)COCC(CN(Cc1ccccc1)c1ccccc1)N1CCCC1 (stereo not drawn)	active: 18.4 µM
Cc1ccc(/C=c2\sc3nc(-c4ccccc4Br)nn3c2=O)o1	inactive
O/N=C\c1ccc(-c2ccccc2)o1	inactive
O=C(NCCc1csc(-c2cccnc2)n1)c1ccccc1	inconclusive: 14.6 µM [cytotoxic, partial curve]
O=C1N[C@@H](c2ccccc2)COC(=O)[C@@H](Cc2ccc(F)cc2)CC/C=C/C[C@H]1CC(=O)N(CCO)Cc1ccccc1	inactive
O=S(=O)(c1ccc2nnn(OCc3ccccc3)c2c1)N1CCOCC1	inconclusive: 20.6 µM [cytotoxic, single point]
COc1ccc(-n2c(/C=C(\C)O)nc(=O)c3c(C)cc(C)nc32)cc1	active: 7.31 µM
O=C(NCCCCc1ccccc1)c1ccc(Br)o1	inconclusive: 18.4 µM [cytotoxic, single point]
